{"source": "PubChem BioAssay AID248", "about": "(DTP/NCI, 2004)", "tested_on": "L1210 leukemia ip in BDF1 mice, survival T/C", "experiment": "NCI In Vivo Anticancer Drug Screen. Data for tumor model L1210 Leukemia (intraperitoneal) in B6D2F1 (BDF1) mice", "details": "T/C endpoint: mean survival time, higher T/C = longer survival", "key": {"[1]": {"details": "dose: 100.0 mg/kg/injection, schedule: Q04DX003 (ip), vehicle: saline with Tween-80"}, "[2]": {"details": "dose: 200.0 mg/kg/injection, schedule: Q04DX003 (ip), vehicle: saline with Tween-80"}, "[3]": {"details": "dose: 400.0 mg/kg/injection, schedule: Q04DX002 (ip), vehicle: saline with Tween-80"}, "[4]": {"details": "dose: 300.0 mg/kg/injection, schedule: Q01DX001 (ip), vehicle: saline"}}, "note": "The list is a part of this screen's results and no random one: it is rich in T/C values a quarter to a half above the control, in often repeated tests (any T/C) and in doses without a T/C. Further doses and runs are listed elsewhere. T/C: endpoint of the treated group in % of that of the vehicle group. Some doses have a count of surviving animals in place of a T/C: the source holds a T/C of zero for them, seemingly a mark for toxic or unscored doses. Some doses without a T/C left all or most animals alive at the check, yet need not have been tolerated: the source hardly ever lists a survival T/C far under the control, and the zero likely stands for such cases as well. Survivors were counted at the toxicity check, usually on the fifth day, unless a day is given; later deaths do not show. Schedule codes are those of the source, read here as Q, the interval in days (D) or hours (H), X, the number of doses. Some schedule codes hold Z or #, which are not explained here. Some entries were tested several times; the values are given in rising order."}
{"smiles": "CC1=C(C)CC2C(=O)C=CC(=O)C2C1", "note": "(stereo unspecified)", "values": [{"measurement": "survivor count", "setting": "dose: 200.0 mg/kg/injection, schedule: Q01DX009 (ip), vehicle: water", "value": "6 of 6"}, {"measurement": "survivor count", "setting": "dose: 400.0 mg/kg/injection, schedule: Q01DX009 (ip), vehicle: water", "value": "1 of 6"}, {"measurement": "survivor count", "setting": "dose: 400.0 mg/kg/injection, schedule: Q04DX003 (ip), vehicle: water", "value": "3 of 6"}]}
{"smiles": "COc1cccc(-c2nc3ccccc3s2)c1OC", "values": [{"measurement": "survivor count", "setting": "dose: 200.0 mg/kg/injection, schedule: Q04DX003 (ip), vehicle: DMSO", "value": "0 of 3"}, {"measurement": "survivor count", "setting": "dose: 400.0 mg/kg/injection, schedule: Q04DX003 (ip), vehicle: DMSO", "value": "0 of 3"}]}
{"smiles": "CCOC(=O)NC(=S)n1ncnc1N", "values": [{"measurement": "survivor count", "setting": "dose: 55.0 mg/kg/injection, schedule: Q01DX009 (ip), vehicle: saline with Tween-80", "value": "4 of 6"}, {"measurement": "survivor count", "setting": "dose: 80.0 mg/kg/injection, schedule: Q01DX009 (ip), vehicle: saline with Tween-80", "value": "0 of 6"}, {"measurement": "survivor count", "setting": "[1]", "value": "1 of 6"}, {"measurement": "survivor count", "setting": "[2]", "value": "0 of 6"}, {"measurement": "survivor count", "setting": "dose: 400.0 mg/kg/injection, schedule: Q04DX003 (ip), vehicle: saline with Tween-80", "value": "0 of 6"}]}
{"smiles": "CCN(CC)C(=O)C1C2CC3OC(=O)C1C3C2", "note": "(stereo unspecified)", "values": [{"measurement": "survivor count", "setting": "dose: 400.0 mg/kg/injection, schedule: Q04DX003 (ip), vehicle: saline", "value": "0 of 4"}]}
{"smiles": "Cc1ccc(-n2cccc2)cc1", "values": [{"measurement": "survivor count", "setting": "dose: 200.0 mg/kg/injection, schedule: Q04DX002 (ip), vehicle: Klucel (hydroxypropylcellulose) (HPC)", "value": "3 of 3"}]}
{"smiles": "C1[CH2][Hg][CH2]CO1", "values": [{"measurement": "survivor count", "setting": "dose: 400.0 mg/kg/injection, schedule: Q04DX002 (ip), vehicle: saline", "value": "2 of 3"}]}
{"smiles": "Nc1[nH]c(=S)nc2c1ncn2C1CCCC1", "values": [{"measurement": "survivor count", "setting": "dose: 400.0 mg/kg/injection, schedule: Q01DX001 (ip), vehicle: other", "value": "6 of 6"}]}
{"smiles": "COc1c(Cl)cc([N+](=O)[O-])cc1Cl", "values": [{"measurement": "survivor count", "setting": "dose: 100.0 mg/kg/injection, schedule: Q01DX009 (ip), vehicle: gum acacia", "value": "2 of 6 and 3 of 6"}, {"measurement": "survivor count", "setting": "dose: 200.0 mg/kg/injection, schedule: Q01DX009 (ip), vehicle: gum acacia", "value": "0 of 6"}, {"measurement": "survivor count", "setting": "dose: 400.0 mg/kg/injection, schedule: Q01DX009 (ip), vehicle: gum acacia", "value": "0 of 6"}]}
{"smiles": "CCCC[S][Sn-]([CH2]CCC)([CH2]CCC)[CH2]CCC", "values": [{"measurement": "survivor count", "setting": "dose: 50.0 mg/kg/injection, schedule: Q04DX002 (ip), vehicle: saline with Tween-80", "value": "2 of 3"}, {"measurement": "survivor count", "setting": "dose: 100.0 mg/kg/injection, schedule: Q04DX002 (ip), vehicle: saline with Tween-80", "value": "0 of 3 and 1 of 3"}, {"measurement": "survivor count", "setting": "dose: 200.0 mg/kg/injection, schedule: Q04DX002 (ip), vehicle: saline with Tween-80", "value": "0 of 3"}, {"measurement": "survivor count", "setting": "[3]", "value": "0 of 3"}]}
{"smiles": "O=C(O)C=C(CBr)CBr", "values": [{"measurement": "survivor count", "setting": "dose: 75.0 mg/kg/injection, schedule: Q01DX001 (ip), vehicle: saline", "value": "3 of 6"}, {"measurement": "survivor count", "setting": "dose: 150.0 mg/kg/injection, schedule: Q01DX001 (ip), vehicle: saline", "value": "0 of 6"}, {"measurement": "survivor count", "setting": "[4]", "value": "1 of 6"}]}
{"smiles": "Cc1c2ccccc2c2ccccc2[n+]1[O-]", "values": [{"measurement": "survivor count", "setting": "[3]", "value": "1 of 3"}]}
{"smiles": "O=C(NCC(S)c1ccc(Cl)cc1)C(F)(F)F", "note": "(stereo unspecified)", "values": [{"measurement": "survivor count", "setting": "dose: 50.0 mg/kg/injection, schedule: Q04DX003 (ip), vehicle: saline with Tween-80", "value": "6 of 6"}, {"measurement": "survivor count", "setting": "[1]", "value": "6 of 6"}, {"measurement": "survivor count", "setting": "[2]", "value": "6 of 6"}]}
{"smiles": "CC(N)Cc1ccc(O)cc1", "note": "(stereo unspecified)", "values": [{"measurement": "survivor count", "setting": "dose: 400.0 mg/kg/injection, schedule: Q01DX009 (ip), vehicle: saline", "value": "5 of 6"}]}
{"smiles": "CCOC(=O)CCN(Cc1ccccc1)C(=S)Nc1ccccc1", "values": [{"measurement": "survivor count", "setting": "dose: 100.0 mg/kg/injection, schedule: Q01DX Z (ip), vehicle: methylcellulose (MC)", "value": "2 of 6"}, {"measurement": "survivor count", "setting": "dose: 200.0 mg/kg/injection, schedule: Q01DX Z (ip), vehicle: methylcellulose (MC)", "value": "4 of 6"}]}
{"smiles": "CC(C)C1N=C(N)N=C(N)N1c1ccc(Cl)c(Cl)c1", "note": "(stereo unspecified)", "values": [{"measurement": "survivor count", "setting": "[4]", "value": "0 of 6"}]}
{"smiles": "CCN(CC)C(=O)CSC#N", "values": [{"measurement": "survivor count", "setting": "dose: 25.0 mg/kg/injection, schedule: Q04DX002 (ip), vehicle: other", "value": "1 of 3"}]}
{"smiles": "CC(=O)Nc1c(Cl)cc(-c2ccc(F)cc2)cc1Cl", "values": [{"measurement": "survivor count", "setting": "dose: 75.0 mg/kg/injection, schedule: Q01DX001 (ip), vehicle: carboxymethylcellulose (CMC)", "value": "2 of 6"}, {"measurement": "survivor count", "setting": "dose: 150.0 mg/kg/injection, schedule: Q01DX001 (ip), vehicle: carboxymethylcellulose (CMC)", "value": "0 of 6"}, {"measurement": "survivor count", "setting": "dose: 300.0 mg/kg/injection, schedule: Q01DX001 (ip), vehicle: carboxymethylcellulose (CMC)", "value": "0 of 6"}]}
